Source: the supplement of paper PMC6411743
± gives the standard deviation of the averaged measurements. Some of the results follow.

Protein sequences, listed by entry. Tags and fused reporters are not part of them. Lines headed by an entry give the natural chain unless they say otherwise; changes in a name come on top.
UniProt Q12968: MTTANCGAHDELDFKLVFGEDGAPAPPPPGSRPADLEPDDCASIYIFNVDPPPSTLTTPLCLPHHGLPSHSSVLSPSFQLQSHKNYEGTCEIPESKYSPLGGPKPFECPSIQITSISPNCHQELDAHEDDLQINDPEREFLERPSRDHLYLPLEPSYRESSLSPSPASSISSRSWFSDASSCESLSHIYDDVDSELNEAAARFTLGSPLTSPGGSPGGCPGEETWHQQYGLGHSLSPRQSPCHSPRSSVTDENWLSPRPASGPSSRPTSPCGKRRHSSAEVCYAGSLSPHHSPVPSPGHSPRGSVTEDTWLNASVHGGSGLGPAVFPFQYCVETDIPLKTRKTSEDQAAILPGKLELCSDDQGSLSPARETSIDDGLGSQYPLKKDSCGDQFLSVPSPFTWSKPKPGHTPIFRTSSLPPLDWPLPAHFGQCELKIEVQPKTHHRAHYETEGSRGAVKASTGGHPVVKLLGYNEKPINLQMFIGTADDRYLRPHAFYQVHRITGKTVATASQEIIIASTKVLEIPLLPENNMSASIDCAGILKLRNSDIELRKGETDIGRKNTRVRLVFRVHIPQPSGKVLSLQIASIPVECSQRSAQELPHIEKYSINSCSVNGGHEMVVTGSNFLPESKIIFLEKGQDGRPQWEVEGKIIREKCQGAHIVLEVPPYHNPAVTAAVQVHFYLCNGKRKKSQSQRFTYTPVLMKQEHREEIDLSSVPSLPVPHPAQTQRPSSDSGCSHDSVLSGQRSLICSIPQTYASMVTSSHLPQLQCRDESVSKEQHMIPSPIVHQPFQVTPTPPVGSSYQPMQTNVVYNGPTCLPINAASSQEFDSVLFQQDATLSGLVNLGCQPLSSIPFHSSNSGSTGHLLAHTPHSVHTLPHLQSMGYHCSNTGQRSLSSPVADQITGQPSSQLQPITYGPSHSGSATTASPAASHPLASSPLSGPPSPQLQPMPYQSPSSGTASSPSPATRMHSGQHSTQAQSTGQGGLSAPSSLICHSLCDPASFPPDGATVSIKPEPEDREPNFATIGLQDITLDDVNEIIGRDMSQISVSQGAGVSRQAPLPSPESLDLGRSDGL
UniProt Q14165: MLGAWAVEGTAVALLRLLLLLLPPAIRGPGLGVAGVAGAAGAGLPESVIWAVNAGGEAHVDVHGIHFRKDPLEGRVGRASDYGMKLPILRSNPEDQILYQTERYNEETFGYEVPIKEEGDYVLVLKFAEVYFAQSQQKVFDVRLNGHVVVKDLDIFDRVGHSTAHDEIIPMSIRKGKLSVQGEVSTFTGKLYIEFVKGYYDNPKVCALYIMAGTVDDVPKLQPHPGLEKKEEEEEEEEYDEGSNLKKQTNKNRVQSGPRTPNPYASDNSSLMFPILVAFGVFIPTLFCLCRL
UniProt Q13472: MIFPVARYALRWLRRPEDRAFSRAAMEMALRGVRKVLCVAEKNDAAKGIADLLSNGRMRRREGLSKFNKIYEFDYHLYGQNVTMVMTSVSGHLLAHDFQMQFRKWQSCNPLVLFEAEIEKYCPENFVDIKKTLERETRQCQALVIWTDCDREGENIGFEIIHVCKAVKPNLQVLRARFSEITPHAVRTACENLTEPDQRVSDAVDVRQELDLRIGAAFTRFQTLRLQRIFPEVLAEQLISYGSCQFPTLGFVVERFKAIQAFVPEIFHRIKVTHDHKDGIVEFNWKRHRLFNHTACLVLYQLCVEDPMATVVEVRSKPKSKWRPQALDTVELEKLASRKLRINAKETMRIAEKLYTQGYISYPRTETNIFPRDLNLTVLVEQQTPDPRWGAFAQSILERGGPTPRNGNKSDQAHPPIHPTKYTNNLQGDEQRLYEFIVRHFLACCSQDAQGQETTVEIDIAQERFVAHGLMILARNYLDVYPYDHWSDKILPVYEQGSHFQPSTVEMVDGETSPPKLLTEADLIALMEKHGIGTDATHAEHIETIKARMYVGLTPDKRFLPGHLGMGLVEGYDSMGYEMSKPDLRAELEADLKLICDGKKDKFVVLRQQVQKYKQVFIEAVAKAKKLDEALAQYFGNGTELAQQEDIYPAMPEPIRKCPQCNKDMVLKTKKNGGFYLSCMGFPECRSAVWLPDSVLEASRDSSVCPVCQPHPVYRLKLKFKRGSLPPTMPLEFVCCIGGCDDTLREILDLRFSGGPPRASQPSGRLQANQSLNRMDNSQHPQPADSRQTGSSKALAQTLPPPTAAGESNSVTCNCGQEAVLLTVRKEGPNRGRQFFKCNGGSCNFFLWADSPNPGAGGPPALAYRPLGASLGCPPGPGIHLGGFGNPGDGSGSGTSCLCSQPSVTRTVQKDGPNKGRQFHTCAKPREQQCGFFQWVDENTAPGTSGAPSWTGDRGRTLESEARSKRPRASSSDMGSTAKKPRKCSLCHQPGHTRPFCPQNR
UniProt Q06330: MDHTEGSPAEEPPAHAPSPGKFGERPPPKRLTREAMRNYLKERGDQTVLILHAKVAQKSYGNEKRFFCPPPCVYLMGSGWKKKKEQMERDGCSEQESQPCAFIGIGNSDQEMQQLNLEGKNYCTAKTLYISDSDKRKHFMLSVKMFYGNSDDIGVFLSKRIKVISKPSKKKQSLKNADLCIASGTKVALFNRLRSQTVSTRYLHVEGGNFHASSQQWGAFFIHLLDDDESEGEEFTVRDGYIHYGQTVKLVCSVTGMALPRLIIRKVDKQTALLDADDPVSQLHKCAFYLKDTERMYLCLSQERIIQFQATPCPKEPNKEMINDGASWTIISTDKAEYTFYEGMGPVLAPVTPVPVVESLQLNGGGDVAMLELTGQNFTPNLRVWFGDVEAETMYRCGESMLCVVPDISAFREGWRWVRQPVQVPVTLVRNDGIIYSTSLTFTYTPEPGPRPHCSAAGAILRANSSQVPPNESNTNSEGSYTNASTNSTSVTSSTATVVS

Compound: Nc1nc2c(ncn2[C@@H]2O[C@H](COP(=O)(O)OP(=O)(O)OP(=O)(O)O)[C@@H](O)[C@H]2O)c(=O)[nH]1 [guanosine triphosphate]
Assay: NP40-soluble protein abundance relative to vehicle (solubility fold change) (ratio); higher = more soluble protein in presence of GTP
Protocol: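 Solubility proteome profiling in Jurkat crude lysate. Lysate was treated with Mg-GTP (0.1-10 mM) for 10 min at room temperature and 3 min at 37 °C, then solubilised with 0.8% NP40 and benzonase, followed by ultracentrifugation. Proteins were quantified by TMT10 LC-MS/MS; the value is the NP40-soluble abundance relative to the NP40-processed vehicle, from 3 independent experiments.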

Row | Target | NP40-soluble protein abundance (concentration: 0.1mM) | NP40-soluble protein abundance (concentration: 0.5mM) | NP40-soluble protein abundance (concentration: 1mM) | NP40-soluble protein abundance (concentration: 2mM) | NP40-soluble protein abundance (concentration: 4mM) | NP40-soluble protein abundance (concentration: 6mM) | NP40-soluble protein abundance (concentration: 8mM) | NP40-soluble protein abundance (concentration: 10mM)
1 | UniProt Q12968 and related entries | 1.02 ± 0.07 | 1.01 ± 0.056 | 1.03 ± 0.063 | 0.978 ± 0.054 | 0.989 ± 0.14 | 0.942 ± 0.093 | 1.06 ± 0.086 | 0.985 ± 0.091
2 | FRG1 (UniProt Q14331) | 1.02 ± 0.041 | 1.07 ± 0.056 | 1.03 ± 0.032 | 1.04 ± 0.023 | 1.1 ± 0.046 | 1.11 ± 0.038 | 1.18 ± 0.08 | 1.15 ± 0.056
3 | MLEC (UniProt Q14165) | 1.01 ± 0.011 | 1.01 ± 0.038 | 0.932 ± 0.021 | 0.924 ± 0.039 | 0.907 ± 0.032 | 0.899 ± 0.04 | 0.874 ± 0.052 | 0.848 ± 0.083
4 | UniProt Q13472 and related entries | 1.08 ± 0.043 | 1.05 ± 0.061 | 1 ± 0.061 | 1.05 ± 0.038 | 1.05 ± 0.074 | 1.02 ± 0.11 | 1.02 ± 0.051 | 0.98 ± 0.045
5 | UniProt Q06330 and related entries | 1.11 ± 0.059 | 1.04 ± 0.058 | 1.04 ± 0.06 | 1.01 ± 0.06 | 1.03 ± 0.028 | 1.01 ± 0.056 | 1.06 ± 0.029 | 0.946 ± 0.082
